Laboratory results: publication PMC10917059
These are yes or no findings as the source states them, for the method shown. Binding seen in cells or lysates may run through a third protein. Binding can be weak; no strength is given.

Amino acid sequences for entries named in this document (tags omitted). A change or cut given only in a name is not applied to a line headed by its entry.
UniProt Q7L0Q8: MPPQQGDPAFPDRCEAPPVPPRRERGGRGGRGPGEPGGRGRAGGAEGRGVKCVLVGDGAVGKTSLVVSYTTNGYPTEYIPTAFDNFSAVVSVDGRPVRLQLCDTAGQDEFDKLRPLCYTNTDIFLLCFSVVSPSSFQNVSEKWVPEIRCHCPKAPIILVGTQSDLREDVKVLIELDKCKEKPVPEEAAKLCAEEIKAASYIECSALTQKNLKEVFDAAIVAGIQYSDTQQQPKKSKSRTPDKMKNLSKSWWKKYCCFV

Target: GFP–ΔN-RhoU(48–258) (human) (UniProt Q7L0Q8)
Assay: co-IP; lysates of co-transfected COS7 cells, GFP-Trap agarose beads, 1 h at 4°C, 10 mM Tris-HCl pH 7.5, 150 mM NaCl, NP40; blots with anti-GFP and anti-Myc

For Myc–RhoU (from UniProt Q7L0Q8-1 1-258), the binding was “binds”.
